Reference: US20190336460A1, “C[…] ACID OR PHARMACEUTICALLY ACCEPTABLE SALT THEREOF AS ACTIVE INGREDIENT FOR PREVENTING OR TREATING OBESITY OR METABOLIC SYNDROMES CAUSED BY OBESITY” (KOREA FOOD RESEARCH INSTITUTE, priority 2016, published 2019)

Tested on: high-fat diet-induced obesity experimental animals (C57BL/6J mice)
Test: Organ weights (fat tissues, prostate, liver, spleen) in high-fat diet-induced obesity mice
Type: in vivo, mouse
Settings: high-fat diet 13 weeks, oral once a day, 10 mmol, mean ± S.D.
Experimental: In the present experiment, five-week-old C57BL/6J mice were purchased from Saeron Bio (Uiwang, Korea), and acclimated for 1 week before use in the experiment. The rearing room was controlled to have a temperature of 20±2° C., a humidity of 55±10%, and a light/darkness cycle of 12 hours during the experimental period. The experimental animals were divided into 6 groups according to the randomized block design, after 1-week of normal diet. The experimental groups were classified into Group A (normal diet group; n=10), Group B (high-fat diet control group; n=10), Group C (high-fat diet+sodium formate 10 mmol; n=9), Group D (high-fat diet+sodium butyrate 10 mmol; n=9), Group E (high-fat diet+sodium propionate 10 mmol; n=8), and Group F (high-fat diet+sodium acetate 10 mmol; n=4).
Water and feed were freely accessible. Groups A and B were orally administered with physiological saline, and the other groups were orally administered with corresponding organic acids once a day (2 μg/g bodyweight). For the test groups, obesity was induced by a high-fat diet for 13 weeks, and a high-fat diet (D12492; 60% of the calories) purchased from Research Diet (USA) was used in the experiment.
The body weights of the experimental animals were measured at a fixed time once a week during the experiment. The experimental animals were fasted for 12 hours before sacrifice, and blood was collected from eyes of the experimental animals anesthetized with ether. In order to prevent the coagulation of the blood after collection, the blood was placed in anti-coagulation tubes and left in an ice bath for 20 min. The collected blood samples were centrifuged at 3000 rpm for 10 min to separate serum therefrom, and refrigerated until use in the experiment. Thereafter, the kit through an enzymatic method was purchased from Young Dong Diagnostics (Yong-In, Korea) to measure the levels of blood lipids (triglyceride, cholesterol, HDL-Cholesterol, and LDL-Cholesterol). The organs were extracted, washed with physiological saline, dehydrated with a filter bed, and then weighed.
The kidney fat, epididymal fat, subcutaneous fat, brown fat, prostate, liver, and spleen were extracted immediately after blood collection from the control and experimental groups, and washed with physiological saline, subjected to surface moisture removal, and then weighed.

How did the Liver weight turn out when `CC(=O)[O-].[Na+]` [acetate, sodium acetate] was run?
Its Liver weight is 1.09 ± 0.48^A g.

What about the Prostate weight of the same compound?
Its Prostate weight is 0.22 ± 0.07^A g.

What about the Spleen weight of the same compound?
The Spleen weight was 0.07 ± 0.01^A g.

For `CCCC(=O)[O-].[Na+]` [butyrate, sodium butyrate], which Liver weight is on record?
Its Liver weight is 0.81 ± 0.26^B g.

What about the Prostate weight of the same compound?
Its Prostate weight is 0.24 ± 0.06^A g.

And the Spleen weight?
Its Spleen weight is 0.07 ± 0.01^A g.

For `O=C[O-].[Na+]` [formate, sodium formate], which Liver weight is on record?
The Liver weight was 0.90 ± 0.10^AB g.

And the Prostate weight?
Its Prostate weight is 0.20 ± 0.05^A g.

And the Spleen weight?
The Spleen weight was 0.07 ± 0.01^A g.

How did the Liver weight turn out when `CCC(=O)[O-].[Na+]` [propionate, sodium propionate] was run?
Its Liver weight is 0.84 ± 0.05^B g.

What about the Prostate weight of the same compound?
The Prostate weight was 0.21 ± 0.06^A g.

And the Spleen weight?
The Spleen weight was 0.06 ± 0.01^A g.
